Laboratory results published in article PMC7663336.
Results are given in words; binding and its absence hold for the method and conditions named. Binding seen in cells or lysates may run through a third protein. A result given as binding can be weak or reduced; the word gives no strength.

Molecular target: voltage-dependent anion-selective channel (human (endogenous in A431))
Assay: co-IP; VDAC immunocaptured from lysate of the mitochondrial fraction of A431 cells (1 mL, 1.5 mg total protein) with VDAC antibody and protein A/G-conjugated beads overnight; four washes with TNES buffer; blot for HK2 and VDAC; cells treated with GL-V9, 10 uM MK2206 or SC79 for 36 h

B1: Hexokinase II (enzyme, UniProt P52789 1-917)
chain: MIASHLLAYFFTELNHDQVQKVDQYLYHMRLSDETLLEISKRFRKEMEKGLGATTHPTAAVKMLPTFVRSTPDGTEHGEFLALDLGGTNFRVLWVKVTDNGLQKVEMENQIYAIPEDIMRGSGTQLFDHIAECLANFMDKLQIKDKKLPLGFTFSFPCHQTKLDESFLVSWTKGFKSSGVEGRDVVALIRKAIQRRGDFDIDIVAVVNDTVGTMMTCGYDDHNCEIGLIVGTGSNACYMEEMRHIDMVEGDEGRMCINMEWGAFGDDGSLNDIRTEFDQEIDMGSLNPGKQLFEKMISGMYMGELVRLILVKMAKEELLFGGKLSPELLNTGRFETKDISDIEGEKDGIRKAREVLMRLGLDPTQEDCVATHRICQIVSTRSASLCAATLAAVLQRIKENKGEERLRSTIGVDGSVYKKHPHFAKRLHKTVRRLVPGCDVRFLRSEDGSGKGAAMVTAVAYRLADQHRARQKTLEHLQLSHDQLLEVKRRMKVEMERGLSKETHASAPVKMLPTYVCATPDGTEKGDFLALDLGGTNFRVLLVRVRNGKWGGVEMHNKIYAIPQEVMHGTGDELFDHIVQCIADFLEYMGMKGVSLPLGFTFSFPCQQNSLDESILLKWTKGFKASGCEGEDVVTLLKEAIHRREEFDLDVVAVVNDTVGTMMTCGFEDPHCEVGLIVGTGSNACYMEEMRNVELVEGEEGRMCVNMEWGAFGDNGCLDDFRTEFDVAVDELSLNPGKQRFEKMISGMYLGEIVRNILIDFTKRGLLFRGRISERLKTRGIFETKFLSQIESDCLALLQVRAILQHLGLESTCDDSIIVKEVCTVVARRAAQLCGAGMAAVVDRIRENRGLDALKVTVGVDGTLYKLHPHFAKVMHETVKDLAPKCDVSFLQSEDGSGKGAALITAVACRIREAGQR
  binding: binds
